# Measured values reported in PubChem BioAssay AID504467 (National Center for Advancing Translational Sciences (NCATS), 2011).
# In all, about 330,000 compounds went through this assay and about 7,700 (2.3%) were called active. The shares of active, inactive and inconclusive entries below differ from those in the screen. The call rests on the fitted dose curve; in most records, active means well fitted inhibition curve with a large enough effect; inconclusive means small, poorly fitted or top-dose-only effect, or effect the other way; inactive means flat fitted curve, though single readings scatter. Potencies beside an inconclusive call are fits to weak or partial responses and may not hold up.
# Assay: qHTS screen for small molecules that inhibit ELG1-dependent DNA repair in human embryonic kidney (HEK293T) cells expressing luciferase-tagged ELG1; further: nearly all actives have a fitted effect of over 55% in size
# Conditions: HEK293T ELG1-luciferase reporter, luminescence, 16 h, DNA damage induced by 5-fluorouridine; activity change, negative = inhibition: at 46.1 µM (top of the series)
# Method in brief: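 In this reporter screen, reduction of luminescence relative to DMSO vehicle indicated activity. Compounds and 5-fluorouridine were added together to 2,000 cells per well, incubated for 16 hr at 37 °C, then developed with ONE-Glo.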
# On the % scale 0 is the no-effect control and ±100 the full control effect; potency means the concentration at half of the fitted maximal effect.
SMILES,Potency,"activity change, negative = inhibition"
Cc1c(NC(=O)c2cc3ccccc3oc2=O)c(=O)n(-c2ccccc2)n1C,"inconclusive: 18.4 µM [activator, partial curve]",–
CC1CCCCC1NC(=O)CCCn1c(=S)[nH]c2ccccc2c1=O (configuration not stated),–,inactive: -18%
COc1ccc(C(=O)OCC(=O)c2c[nH]c3ccccc23)cc1OC,"inconclusive: 9.2 µM [activator, partial curve]",–
Cc1ccc(-c2csc(=Nc3cccnc3)n2CCCn2ccnc2)cc1C,active: 2.91 µM,–
Cn1c(NCCO)nc2c1c(=O)n(Cc1ccc(F)cc1)c(=O)n2C,–,inactive: 5.83%
CCc1nnc(NC(=O)CCC(=O)N2CCN(Cc3ccc(F)cc3)CC2)s1,–,inactive: 0.511%
CCOC(=O)N1CCN(C(=O)C2CCCN(S(=O)(=O)c3ccc(OCC)cc3)C2)CC1 (configuration not stated),"inconclusive: 11.6 µM [inhibitor, partial curve, poor fit]",–
COc1ccc(-n2nc3cc(C)c(NC(=S)NC(=O)c4ccccc4C)cc3n2)cc1,"inconclusive: 10.3 µM [activator, partial curve]",–
Cc1cccc(N(C(=O)c2ccc(CN3CCOCC3)o2)C(C(=O)NC2CCCCC2)c2ccc(F)cc2)c1 (configuration not stated),"inconclusive: 14.6 µM [activator, partial curve]",–
CCN(CC(=O)Nc1ccc(NC(C)=O)cc1)C(=O)/C=C/c1cccs1,–,inactive: 12.2%
CC(=O)Nc1ccc2nc(NC(=O)c3cccs3)sc2c1,"inconclusive: 4.61 µM [activator, partial curve]",–
COc1ccc(CCC(=O)NC2CCCc3ccccc32)cc1OC (configuration not stated),–,inactive: 0.0098%
COc1cccc(C(=O)NC(=S)NCc2ccco2)c1,"inconclusive: 20.6 µM [activator, single point]",–
CCc1ccc(Nc2cc(=O)n(C3CCCCC3)c(=O)[nH]2)cc1,"inconclusive: 25.1 µM [inhibitor, single point]",–
CCOc1cccc(N(C(=O)Cc2cccs2)C(C(=O)NC2CCCCC2)c2cccn2C)c1 (configuration not stated),"inconclusive: 3.66 µM [inhibitor, partial curve, poor fit]",–
O=C(C1CCCCC1)N1CCN(c2nc(-c3ccc(F)cc3)cs2)CC1,active: 20.6 µM,–
Cc1cccc(N(CC(O)CN2CCCC2)S(=O)(=O)c2ccccc2)c1 (configuration not stated),–,inactive: 13.4%
COCCCn1c(=O)c2ccccc2n(CC(=O)Nc2ccc3c(c2)OCCO3)c1=O,–,inactive: -0.396%
Cc1ccccc1C(=O)N1CCN(c2ccc(NC(=O)c3ccc4c(c3)OCCO4)cc2)CC1,"inconclusive: 9.2 µM [inhibitor, partial curve]",–
COc1ccccc1CNS(=O)(=O)c1ccc(NC(C)=O)cc1,–,inactive: -9.94%
Cc1cccc(N2CCN(C(=O)Cc3ccc(-n4c(=O)[nH]c5ccsc5c4=O)cc3)CC2)c1C,active: 18.4 µM,–
Fc1ccc2c(c1)C(c1ccncc1)=NNC(c1ccccc1)=N2,–,inactive: 13.3%
O=S(=O)(c1ccc(Cl)cc1)N1CCC(N2CCCCCC2)CC1,–,inactive: 8.9%
COc1ccc(OC)c(N(CC(=O)NCCSC2CCCCC2)S(=O)(=O)c2ccccc2)c1,–,inactive: -5.93%

# Molecules listed so far with two or more sulfur atoms:
SMILES,Potency,"activity change, negative = inhibition"
CC(=O)Nc1ccc2nc(NC(=O)c3cccs3)sc2c1,"inconclusive: 4.61 µM [activator, partial curve]",–
COc1ccc(OC)c(N(CC(=O)NCCSC2CCCCC2)S(=O)(=O)c2ccccc2)c1,–,inactive: -5.93%

# More compounds:

SMILES,Potency,"activity change, negative = inhibition"
COC(=O)[C@]1(C)N[C@H](CN(C)S(=O)(=O)c2ccccc2)[C@@H]2C(=O)N(C)C(=O)[C@@H]21,"inconclusive: 32.6 µM [inhibitor, single point]",–
COc1cc(/C=C(/C#N)c2nc(-c3cc4ccccc4oc3=O)cs2)cc([N+](=O)[O-])c1O,"inconclusive: 2.06 µM [inhibitor, partial curve, poor fit]",–
O=C(NNC(=O)C1CC(=O)N(c2ccc3c(c2)OCCO3)C1)c1ccc(F)cc1 (configuration not stated),"inconclusive: 20.6 µM [activator, single point]",–
O=C(NNc1cc(N2CCOCC2)nc(N2CCOCC2)n1)c1ccc([N+](=O)[O-])cc1,"inconclusive: 25.9 µM [inhibitor, partial curve, poor fit]",–
Cc1cc(-c2ccccc2)nc(SCc2ccc(C(=O)O)o2)n1,–,inactive: 14.2%
COc1ccc2nc(Nc3nc(C)c(CCC(C)C)c(=O)[nH]3)nc(C)c2c1,"inconclusive: 6.51 µM [inhibitor, full curve, poor fit]",–
O=C(/C=C/c1ccccc1Br)c1ccc2c(c1)OCO2,"inconclusive: 20.6 µM [activator, single point]",–
CC[n+]1ccc(/C=C/c2c[nH]c3ccccc23)cc1,"inconclusive: 4.61 µM [inhibitor, partial curve]",–
O=C(CN(Cc1ccc(Br)cc1)S(=O)(=O)c1ccccc1)NCC1CCCO1 (configuration not stated),–,inactive: 3.61%
CCc1ccc(NS(=O)(=O)c2c(C)nc3sc(CC)nn3c2=O)cc1,–,inactive: 5.77%
O=C(COC(=O)c1c(F)cccc1F)Nc1ccc2c(c1)OCO2,–,inactive: 18.9%
COc1ccc(CCNC(=O)CSCc2c(F)cccc2Cl)cc1OC,–,inactive: 6.35%
CC1CC(C)CN(S(=O)(=O)c2ccc(C(=O)NCc3ccc4c(c3)OCO4)cc2)C1 (configuration not stated),"inconclusive: 29.1 µM [inhibitor, single point]",–
CCN(CC)c1ccc(/C=C2\C(=O)c3ccc(C(=O)O)cc3C2=O)cc1,"inconclusive: 18.4 µM [activator, partial curve]",–
O=C(C1CCCCC1)N1CCCC(c2nc3c(nnn3Cc3ccccc3)c(=O)[nH]2)C1 (configuration not stated),"inconclusive: 23.1 µM [inhibitor, single point]",–
COc1ccc(C2C(C(N)=O)=C(C)Nc3nc(-c4cccc(Cl)c4)nn32)cc1OC (configuration not stated),–,inactive: 1.98%
Cc1ccc(NC(=O)c2ccccc2F)cc1S(=O)(=O)N1CCCCCC1,"inconclusive: 20.6 µM [inhibitor, single point]",–
COc1ccc(S(=O)(=O)NCCc2ccncc2)cc1,–,inactive: 11.5%
O=C(c1cccc(NS(=O)(=O)c2ccc(F)c(F)c2)c1)N1CCN(C(c2ccccc2)c2ccccc2)CC1,"inconclusive: 29.1 µM [inhibitor, single point]",–
CCCc1ccc2oc(C(=O)NCCc3cnn(C)c3)c(C)c2c1,"inconclusive: 16.4 µM [activator, partial curve]",–
CCN(CC)S(=O)(=O)c1ccc(-c2ccc(S(=O)(=O)N(CC)CC)cc2)cc1,active: 6.51 µM,–
CC1(C)CC(=O)C(C2C3=C(CC(C)(C)CC3=O)Oc3ccc4ccccc4c32)C(=O)C1 (configuration not stated),"inconclusive: 9.2 µM [activator, partial curve, poor fit]",–
CCOC(=O)C1=C(CNCCOc2ccc(OC)cc2)NC(=O)NC1c1ccc2c(c1)OCO2 (configuration not stated),"inconclusive: 16.4 µM [inhibitor, single point]",–
O=C(Cc1csc(Nc2nc(=S)[nH]c3ccccc23)n1)N1CCN(c2cccc(C(F)(F)F)c2)CC1,"inconclusive: 5.8 µM [inhibitor, partial curve, poor fit]",–

SMILES,Potency,"activity change, negative = inhibition"
COC(=O)c1cc2nc(-c3ccccc3)cc(C)n2n1,–,inactive: -7.16%
COc1nc(Nc2cccc(C)c2)nc(N2CCCCC2)n1,–,inactive: -23%
CCOC(=O)c1ccccc1NC(=O)CN(c1ccccc1)S(=O)(=O)N(C)C,–,inactive: -21.5%
O=C(NCc1ccccc1)C1CCCN(S(=O)(=O)c2ccc(Br)cc2)C1 (configuration not stated),–,inactive: -5.08%
C/C(=N\NC(=O)c1ccc(F)cc1)c1ccc(N2CCOCC2)cc1,"inconclusive: 14.6 µM [activator, partial curve]",–
COc1ccc(-c2cc(C)no2)cc1S(=O)(=O)N1CCN(c2ccccc2F)CC1,–,inactive: -10.9%
CCOC(=O)c1c(-c2ccccc2)csc1NC(=O)c1nn(CC)cc1Br,active: 11.6 µM,–
O=C(NNc1nc2cc3c(cc2s1)OCCO3)c1ccccc1,"inconclusive: 20.6 µM [activator, partial curve]",–
CC(=O)OCC(=O)[C@@]1(O)CC[C@H]2[C@@H]3CCC4=CC(=O)CC[C@]4(C)[C@H]3C(=O)C[C@@]21C,–,inactive: 1.2%
Cc1c(C(=O)Nc2ccc3c4c(cccc24)CC3)cccc1[N+](=O)[O-],"inconclusive: 29.1 µM [inhibitor, single point]",–
Cn1ccnc1SCC(=O)NC1CCCCC1,"inconclusive: 35.5 µM [inhibitor, single point]",–
Cc1nc2c(-c3ccc(F)cc3)c(C)nn2c(C)c1CCC(=O)NCc1ccco1,"inconclusive: 23.1 µM [inhibitor, partial curve, poor fit]",–
Cc1ccc(C(=O)Nc2ccc(C(=O)N/N=C/c3c[nH]c4ccccc34)cc2)cc1,"inconclusive: 29.1 µM [inhibitor, single point]",–
Cc1cccc(-n2ncc3c(NCCCO)ncnc32)c1,"inconclusive: 5.17 µM [activator, partial curve]",–
CCOc1cc(CNc2ccc(N3CCN(C(C)=O)CC3)cc2)cc(Br)c1OC,"inconclusive: 20.6 µM [inhibitor, partial curve, poor fit]",–
CCOP(=O)(OCC)C(Nc1ccc(OC)cc1)c1ccco1 (configuration not stated),–,inactive: -22.1%
Cn1cc(CNC(=O)c2cc(-c3ccc(Br)cc3)nc3ccccc23)cn1,–,inactive: -7.14%
Fc1ccc(NC(=S)NC2CCCCC2)c(F)c1F,"inconclusive: 6.51 µM [inhibitor, single point]",–
COc1ccccc1NC(=S)N(Cc1ccco1)Cc1cc2cc(C)cc(C)c2[nH]c1=O,active: 11.6 µM,–
COC(=O)c1ccccc1CC1SC(N)=NC1=O (configuration not stated),–,inactive: -4.6%
C/C(=N\O)c1ccc(Cl)c(Cl)c1,–,inactive: -4.16%
O=C(Cn1nc(Cc2ccncc2)c2ccccc2c1=O)Nc1cccnc1Cl,–,inactive: 7.16%
CC(=O)Nc1ccc(CN2CCc3c([nH]c4ccccc34)C2c2ccccn2)cc1 (configuration not stated),"inconclusive: 23.1 µM [inhibitor, single point]",–
CCOC(=O)/C(=C\C=C1/Sc2cc(OCC)c(OCC)cc2N1CC)C(C)=O,active: 16.4 µM,–

# 3 entries already listed, arranged by number of heavy atoms, falling:
SMILES,Potency,"activity change, negative = inhibition"
CC(=O)OCC(=O)[C@@]1(O)CC[C@H]2[C@@H]3CCC4=CC(=O)CC[C@]4(C)[C@H]3C(=O)C[C@@]21C,–,inactive: 1.2%
COC(=O)c1cc2nc(-c3ccccc3)cc(C)n2n1,–,inactive: -7.16%
C/C(=N\O)c1ccc(Cl)c(Cl)c1,–,inactive: -4.16%
